{
  "source": "PubChem BioAssay AID1508600",
  "about": "(Functional Genomics Laboratory (NCATS/FGL), 2020)",
  "note": "About 3,700 (7%) of roughly 53,000 sequences were called active.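 How the source made its calls: active means gene knockdowns whose robust z-score for IL-1 alpha signal is at least 2 or at most -2, so actives lie on both sides; inactive means the rest.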 The list shows a part of the results.",
  "data": [
    {"experiment": "Components of the Cytosolic LPS Sensing Pathway: Gene Identification via Genome-wide siRNA Screen;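 further: robust z of the log signal after scaling to non-targeting control siRNA wells of the plate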", "conditions": "RAW264.7 macrophages, IL-1a HTRF, actives lie on both sides, screened at 100 nM (by protocol), cells primed 5 h with Pam3CSK4 first", "summary_of_the_method": "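Read-out: IL-1a HTRF on supernatant, divided by plate negative-control median ×100, log-transformed and converted to robust z-score. Cells were RAW264.7 given 100 nM siRNA, Pam3CSK4-primed 5 hours, then LipidA-transfected 24 hour.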", "values": [
      {"sequence": "GCAUGCCUAAAUUUGGGACTT against Fyb", "z-score": "inactive: 0.805"},
      {"sequence": "GGGUGCUUAAUAAACAUAATT against Slc22a8", "z-score": "inactive: 0.65"},
      {"sequence": "GGUACUCAAGGUAGGCUGCTT against Oasl1", "z-score": "inactive: -0.28"},
      {"sequence": "GCUCUAUUCUCCAACUCUGTT against Pof1b", "z-score": "inactive: 0.154"},
      {"sequence": "GCAGACAUGAACCGACUCATT against Gid8", "z-score": "inactive: -0.614"},
      {"sequence": "GGAGUUCAACUAGAUGUGGTT against Bcl2l13", "z-score": "inactive: -1.2"},
      {"sequence": "GGGACAGUUUGGUGAAGGCTT against Pear1", "z-score": "inactive: -0.588"},
      {"sequence": "CCAGAUCAGAUCCAGUACATT against Gjc1", "z-score": "inactive: 0.772"},
      {"sequence": "GCUGAGGAGGUUGUAUCAUTT against Fundc2", "z-score": "inactive: 1.55"},
      {"sequence": "GCGAAAUGCACCAGAUCAGTT against Kbtbd7", "z-score": "inactive: -0.426"},
      {"sequence": "GGGUUUCCUUAUGAGAAAGTT against Mien1", "z-score": "inactive: -0.606"},
      {"sequence": "GCCAAGAAAGAUCAUUGACTT against Far2", "z-score": "inactive: -0.703"},
      {"sequence": "GGCUGUUACAAGAACGUAGTT against 5031434C07Rik", "z-score": "inactive: -1.99"},
      {"sequence": "GGAUUAUGGACCUCUUGGUTT against 4930595M18Rik", "z-score": "inactive: 0.554"},
      {"sequence": "GUGGAAGAAGGAAAAGCCCTT against Lrp2bp", "z-score": "inactive: 1.06"},
      {"sequence": "GGAGCGAUUCACAAAUUACTT against Tapt1", "z-score": "active: 3.05"},
      {"sequence": "CCCAAUUCAGGUUUUUAACTT against Midn", "z-score": "inactive: 0.989"},
      {"sequence": "GGAUAUUGGUGGCACUUUATT against Med6", "z-score": "inactive: -0.315"},
      {"sequence": "GGCAUCAAUGAGUUCGCAUTT against Slc45a1", "z-score": "inactive: -0.818"},
      {"sequence": "UCCUUCAUUUGAAUGCAAGTT against H2bu1-ps", "z-score": "inactive: -0.304"},
      {"sequence": "CGUGGUAGACACUGUGGUATT against Plin1", "z-score": "inactive: 1.61"},
      {"sequence": "GGCAAUGGUUCAGCAGUGGTT against Eef1e1", "z-score": "inactive: -0.564"},
      {"sequence": "GGGAUUCUGAGCUUUCUGGTT against Bpifa5", "z-score": "inactive: -0.909"},
      {"sequence": "CCUCUUCACUAUAGCACUCTT against Olfr1019", "z-score": "inactive: -0.718"},
      {"sequence": "GCUCUGCUAUCGUGAUCUGTT against Kctd13", "z-score": "inactive: 1.68"},
      {"sequence": "GCUGGUAUACGAGACCGUATT against Fshb", "z-score": "inactive: 1.05"},
      {"sequence": "GGCUUUUAGAUUCAACGGCTT against Sun2", "z-score": "inactive: 1.53"},
      {"sequence": "GGUCCUACAUCUCCUUCGATT against Cars", "z-score": "inactive: -0.194"},
      {"sequence": "GGAUAAUGUGGAUAGAACUTT against Slco1a5", "z-score": "inactive: 1.38"},
      {"sequence": "CGGCUACAACACAUACGCCTT against Fgf22", "z-score": "inactive: 0.00337"},
      {"sequence": "GGCUACUGUAGGAAGAAAUTT against Defb20", "z-score": "inactive: 1.7"},
      {"sequence": "GGACUGGUACAAGACAAUGTT against Sorbs2", "z-score": "inactive: 0.532"},
      {"sequence": "GGUUCCUUAUUGGUUUCAGTT against Fpr2", "z-score": "inactive: 1.5"},
      {"sequence": "GGAAACACCUAUCUUCUGGTT against Npdc1", "z-score": "inactive: -0.0666"},
      {"sequence": "GGAGGUUAUGAUUCUUCACTT against Fn3krp", "z-score": "inactive: 0.924"},
      {"sequence": "CCCUGUAAAGAUCGAGAAGTT against Zfp296", "z-score": "inactive: 0.241"},
      {"sequence": "GGAACACCAUAUGAAGGCGTT against Ube2h", "z-score": "inactive: 1.97"},
      {"sequence": "GGGUUGUCCUGAACUUUAATT against Npr1", "z-score": "inactive: 0.236"},
      {"sequence": "GCCUAGGGUUUCUGAAAUGTT against Rpe", "z-score": "inactive: 0.249"},
      {"sequence": "GCUGCUGAAUUGAAUCAUCTT against Krtap4-7", "z-score": "inactive: 0.933"},
      {"sequence": "GCCACCAGUGAAUAAUACATT against Hyal6", "z-score": "inactive: 0.459"},
      {"sequence": "GGAAGCUCGACGGAAGUUCTT against Sik3", "z-score": "inactive: -1.45"},
      {"sequence": "GGUCUUUUAGAGUAGGAUUTT against Ranbp3l", "z-score": "inactive: -0.32"},
      {"sequence": "GCCAAUUAGCAUAUUUCAUTT against Slc16a4", "z-score": "inactive: 1.53"},
      {"sequence": "GCAGCUACGUAUACCAUGUTT against Gfm1", "z-score": "inactive: -0.788"},
      {"sequence": "GGAGCAAUGUGUUUUCUCUTT against Ppnr", "z-score": "inactive: -1.36"},
      {"sequence": "CCUCGUCUUAUUGAGGCUCTT against Dhrs1", "z-score": "inactive: -0.537"},
      {"sequence": "GGUCAUCGAAUCUGGAGUATT against Pyroxd1", "z-score": "inactive: -0.282"},
      {"sequence": "GGCAUCUCCCACAUUAGAGTT against Sell", "z-score": "inactive: 0.949"},
      {"sequence": "GGAAGACUUGGCUACACAATT against Rab40c", "z-score": "inactive: -1.04"},
      {"sequence": "GGCAAAAGACUGGUUUUGUTT against Nr2f2", "z-score": "inactive: 1.54"},
      {"sequence": "CCUAAAAGACUUUGGAGACTT against Arg2", "z-score": "inactive: -1.09"},
      {"sequence": "CCUCCUCUCUUACUACGAGTT against Nab2", "z-score": "inactive: 0.487"},
      {"sequence": "GCUAAUUUCUUGAGAAGCGTT against Dek", "z-score": "inactive: -0.0181"},
      {"sequence": "GGAGCUGCUCCCUCUAAUATT against Cbr1", "z-score": "inactive: -1.24"},
      {"sequence": "GGAACUAGAGCUGAUAAUATT against Smurf1", "z-score": "inactive: 0.155"},
      {"sequence": "GGAGCUUGAAAUGCUUGGUTT against Psmg1", "z-score": "inactive: -1.01"},
      {"sequence": "GCAGGAGGUUCGUGAUAUUTT against Pck2", "z-score": "inactive: -0.498"},
      {"sequence": "GGUUGGUGCUGGCUAACAUTT against Gabra2", "z-score": "inactive: -0.995"},
      {"sequence": "GGCAAGAUUACUGUUGUAGTT against Ndufaf4", "z-score": "inactive: -0.303"},
      {"sequence": "CCUGUAGCAUUACGUUAGCTT against Tnip3", "z-score": "inactive: -0.355"},
      {"sequence": "GGCUUUAUCCUGUCUGUGGTT against Slc10a2", "z-score": "inactive: -2"},
      {"sequence": "CCCACUCCAAACAUCUAAATT against Gadd45b", "z-score": "inactive: -0.661"},
      {"sequence": "GGAAGUUGAUGAAUUCUUATT against Raet1a", "z-score": "inactive: -0.507"},
      {"sequence": "GCAAAUCAGUCUAUCGCUGTT against Mcpt8", "z-score": "inactive: 0.39"},
      {"sequence": "GGUAUACUCUUAGAGUAACTT against Klhl22", "z-score": "inactive: 0.526"},
      {"sequence": "GGAAAUCUUUGAGUUUGAATT against Clca1", "z-score": "inactive: -0.0578"},
      {"sequence": "GGUAUGAUCAAUGACUUACTT against Serpine1", "z-score": "inactive: -0.165"}
    ]}
  ]
}
